PubChem BioAssay AID652243 | Drosophila RNAi Screening Center, 2013
Screen: 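Fly genes required for human androgen receptor driven transcription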 (primary screen). Cells: Drosophila S2R+ cells. Knock-down reagent: long dsRNA against Drosophila genes. Timing: 72 h (48 h, then 24 h hormone). Treatment: synthetic androgen R1881 at 10 nM for 24 h. Measured: 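Per-well raw luminescence of the androgen-driven firefly reporter and of the Renilla control, two replicates each, without normalisation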. Scale: firefly reporter light: higher = more light from androgen-responsive reporter; Renilla control light: higher = more constitutive control signal (cell number, transfection). Active means: 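Across duplicate plates, a knock-down whose log firefly/Renilla ratio shifted a set fold down or up from the GFP/LacZ control mean was a hit; the downward cut appears as both 1.5 and 3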. Meaning of the calls: active = hit: reporter lowered or raised; inactive = no hit.
In all, the deposit lists about 24,000 reagents; this is an unselected part of those that have a named target and a result. Of all reagents, 246 (1%) are marked active. 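Plates not normalised; calls are printed but the firefly/Renilla ratio behind them is not deposited; fold cut for lowering reported inconsistently.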 Raw values vary from plate to plate and are shown uncorrected. Unmarked entries are inactive. A plus sign joins genes that one reagent is predicted to hit. Reagent sequences are not shown. Not given: the amount of reagent.

With knock-down of CG10953 [DRSC28267], the screen gave firefly reporter light, replicate 1 = 3.06e5; firefly reporter light, replicate 2 = 5.77e5; Renilla control light, replicate 1 = 1.03e6; Renilla control light, replicate 2 = 1.55e6. With knock-down of CG18088 [DRSC02654], the screen gave firefly reporter light, replicate 1 = 2.07e5; firefly reporter light, replicate 2 = 1.21e5; Renilla control light, replicate 1 = 1.26e6; Renilla control light, replicate 2 = 1.05e6. Knock-down of eIF3g2 [DRSC14275] gave: firefly reporter light, replicate 1 = 2.27e5; firefly reporter light, replicate 2 = 2.59e5; Renilla control light, replicate 1 = 1.66e6; Renilla control light, replicate 2 = 2.02e6. After knock-down of eIF3g2 [DRSC28960], the screen gave firefly reporter light, replicate 1 = 4.41e5 (active); firefly reporter light, replicate 2 = 3.70e5; Renilla control light, replicate 1 = 1.69e6; Renilla control light, replicate 2 = 1.50e6. With knock-down of CG4842 [DRSC10453] the results were firefly reporter light, replicate 1 = 4.00e5; firefly reporter light, replicate 2 = 3.36e5; Renilla control light, replicate 1 = 2.96e6; Renilla control light, replicate 2 = 2.68e6. After knock-down of CG42795 [DRSC12772], the screen gave firefly reporter light, replicate 1 = 1.58e5; firefly reporter light, replicate 2 = 1.60e5; Renilla control light, replicate 1 = 2.26e5; Renilla control light, replicate 2 = 2.51e5.

For CG42795 [DRSC15533], the values are firefly reporter light, replicate 1 = 1.06e5; firefly reporter light, replicate 2 = 1.56e5; Renilla control light, replicate 1 = 2.17e6; Renilla control light, replicate 2 = 2.29e6. Against CG42795 [DRSC24766], the entry reads firefly reporter light, replicate 1 = 8.47e5; firefly reporter light, replicate 2 = 6.73e5; Renilla control light, replicate 1 = 1.02e6; Renilla control light, replicate 2 = 1.06e6. Knock-down of CG31740 [DRSC01619] came out at: firefly reporter light, replicate 1 = 1.58e5; firefly reporter light, replicate 2 = 1.49e5; Renilla control light, replicate 1 = 5.50e5; Renilla control light, replicate 2 = 6.07e5. Mlh1 [DRSC07473] showed firefly reporter light, replicate 1 = 9.02e5; firefly reporter light, replicate 2 = 5.02e5; Renilla control light, replicate 1 = 9.33e5; Renilla control light, replicate 2 = 8.71e5. Oga [DRSC15901] gave firefly reporter light, replicate 1 = 65602; firefly reporter light, replicate 2 = 72859; Renilla control light, replicate 1 = 6.12e5; Renilla control light, replicate 2 = 6.07e5. After knock-down of Rab11 [DRSC16809], the screen gave firefly reporter light, replicate 1 = 2.00e5; firefly reporter light, replicate 2 = 2.42e5; Renilla control light, replicate 1 = 2.66e6; Renilla control light, replicate 2 = 2.67e6.

Rab11 [DRSC23620] scored firefly reporter light, replicate 1 = 6.31e5; firefly reporter light, replicate 2 = 3.81e5; Renilla control light, replicate 1 = 4.40e5; Renilla control light, replicate 2 = 4.51e5. Against Tip60 [DRSC18661], the entry reads firefly reporter light, replicate 1 = 1.74e5; firefly reporter light, replicate 2 = 1.90e5; Renilla control light, replicate 1 = 9.36e5; Renilla control light, replicate 2 = 8.41e5. Depletion of Or22b [DRSC00765] resulted in: firefly reporter light, replicate 1 = 1.66e5; firefly reporter light, replicate 2 = 1.26e5; Renilla control light, replicate 1 = 9.35e5; Renilla control light, replicate 2 = 9.90e5. CG42516 + Pbp49 [DRSC06073] scored firefly reporter light, replicate 1 = 1.12e6; firefly reporter light, replicate 2 = 1.35e6; Renilla control light, replicate 1 = 9.10e5; Renilla control light, replicate 2 = 1.20e6. After knock-down of mRpS2 [DRSC00550], the record shows firefly reporter light, replicate 1 = 79913; firefly reporter light, replicate 2 = 80103; Renilla control light, replicate 1 = 6.09e5; Renilla control light, replicate 2 = 9.24e5. Grl40a [DRSC38905] scored firefly reporter light, replicate 1 = 8.64e5; firefly reporter light, replicate 2 = 7.86e5; Renilla control light, replicate 1 = 1.96e6; Renilla control light, replicate 2 = 2.06e6.

For SdhD [DRSC14215] the deposit lists firefly reporter light, replicate 1 = 1.88e5; firefly reporter light, replicate 2 = 2.45e5; Renilla control light, replicate 1 = 2.95e6; Renilla control light, replicate 2 = 2.74e6. Against CG8850 [DRSC07287] the deposit lists firefly reporter light, replicate 1 = 2.27e5; firefly reporter light, replicate 2 = 2.18e5; Renilla control light, replicate 1 = 1.57e6; Renilla control light, replicate 2 = 1.51e6. With knock-down of CG8850 [DRSC25965], the screen gave firefly reporter light, replicate 1 = 3.30e5; firefly reporter light, replicate 2 = 2.66e5; Renilla control light, replicate 1 = 9.21e5; Renilla control light, replicate 2 = 7.70e5.

Called active, of those listed so far:
eIF3g2 [DRSC28960]: firefly reporter light, replicate 1 = 4.41e5 (active); firefly reporter light, replicate 2 = 3.70e5; Renilla control light, replicate 1 = 1.69e6; Renilla control light, replicate 2 = 1.50e6
